Laboratory results: patent EP3797769A1, “COMPOSITION FOR THERAPEUTIC USE” (Fontès, M. Michel, priority 2019, dated 2021)

Test system: connexon
Details: fibroblasts of the CMTX patient, one day with clémastine 10 µM; LY 110 µM, two hours incubation, fluorescence (Figure 2)

With `CN1CCC[C@@H]1CCO[C@](C)(c1ccccc1)c1ccc(Cl)cc1` [clémastine] the activité connexon was “restaure l'activité connexon”.
